According to paper PMC4807768:
These are yes or no findings as the source states them, for the method shown. Binding can be weak; no strength is given. For some assays here: Sequences can lack the tags named with a protein. For some assays here: In cells and extracts the contact can be indirect. One block for each molecule: values may come before it.

Sequences of proteins named here, by UniProt entry; tags and fusion partners are left off. A change or cut given only in a name is not applied to a line headed by its entry.
UniProt Q39057: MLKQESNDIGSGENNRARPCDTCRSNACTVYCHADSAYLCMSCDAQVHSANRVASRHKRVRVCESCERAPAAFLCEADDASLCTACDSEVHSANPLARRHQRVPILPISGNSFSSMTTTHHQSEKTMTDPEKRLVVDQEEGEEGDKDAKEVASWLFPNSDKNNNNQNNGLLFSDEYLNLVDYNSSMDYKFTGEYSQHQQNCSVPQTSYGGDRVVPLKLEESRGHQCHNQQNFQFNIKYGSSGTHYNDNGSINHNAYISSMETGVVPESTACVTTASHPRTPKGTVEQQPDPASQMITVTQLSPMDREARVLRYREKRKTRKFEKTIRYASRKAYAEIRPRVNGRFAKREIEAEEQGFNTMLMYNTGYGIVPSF
UniProt Q9LRM4: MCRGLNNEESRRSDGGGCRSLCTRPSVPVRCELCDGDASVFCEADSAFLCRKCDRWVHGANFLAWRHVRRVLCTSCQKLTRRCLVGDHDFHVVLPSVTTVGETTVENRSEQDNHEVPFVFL
UniProt Q1G3I2: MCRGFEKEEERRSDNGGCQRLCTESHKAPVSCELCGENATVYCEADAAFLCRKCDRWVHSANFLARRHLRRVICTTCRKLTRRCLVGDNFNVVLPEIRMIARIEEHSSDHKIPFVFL

Key:
[1] = target: T1, TOPLESS fused to the Gal4 DNA-binding domain (BD-TPL) (Arabidopsis thaliana) (UniProt Q94AI7); test: two-hybrid; direct yeast two-hybrid test against TPL; growth on medium lacking histidine with 10 mM 3-aminotriazole
T1 sequence: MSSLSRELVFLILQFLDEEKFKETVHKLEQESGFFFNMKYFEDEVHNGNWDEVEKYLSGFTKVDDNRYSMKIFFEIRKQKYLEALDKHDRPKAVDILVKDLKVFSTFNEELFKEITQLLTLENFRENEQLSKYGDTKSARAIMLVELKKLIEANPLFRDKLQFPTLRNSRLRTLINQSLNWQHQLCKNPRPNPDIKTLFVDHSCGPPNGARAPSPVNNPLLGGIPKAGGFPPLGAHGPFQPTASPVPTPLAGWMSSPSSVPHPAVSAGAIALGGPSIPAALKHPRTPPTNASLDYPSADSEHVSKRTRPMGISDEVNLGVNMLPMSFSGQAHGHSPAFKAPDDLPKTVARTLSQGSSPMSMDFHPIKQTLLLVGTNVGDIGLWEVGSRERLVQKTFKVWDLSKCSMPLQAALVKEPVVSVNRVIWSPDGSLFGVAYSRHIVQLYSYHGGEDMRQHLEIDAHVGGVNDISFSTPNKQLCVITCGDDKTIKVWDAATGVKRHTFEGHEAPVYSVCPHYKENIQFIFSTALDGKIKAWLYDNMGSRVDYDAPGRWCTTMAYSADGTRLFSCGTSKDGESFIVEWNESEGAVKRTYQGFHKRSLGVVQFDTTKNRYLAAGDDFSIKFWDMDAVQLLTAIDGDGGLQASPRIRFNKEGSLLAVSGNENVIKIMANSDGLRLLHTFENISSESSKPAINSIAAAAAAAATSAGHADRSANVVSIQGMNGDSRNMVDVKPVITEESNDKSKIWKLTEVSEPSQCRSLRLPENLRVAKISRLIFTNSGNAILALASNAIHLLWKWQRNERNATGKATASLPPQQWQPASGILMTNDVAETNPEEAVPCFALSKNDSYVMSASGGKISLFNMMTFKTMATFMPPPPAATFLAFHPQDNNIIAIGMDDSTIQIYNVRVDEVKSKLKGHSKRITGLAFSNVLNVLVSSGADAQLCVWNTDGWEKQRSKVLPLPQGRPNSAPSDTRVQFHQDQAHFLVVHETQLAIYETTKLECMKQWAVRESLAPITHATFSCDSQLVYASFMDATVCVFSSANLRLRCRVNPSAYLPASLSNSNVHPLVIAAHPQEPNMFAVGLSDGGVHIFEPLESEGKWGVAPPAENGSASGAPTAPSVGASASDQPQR

[2] = target: MBP-CO (Arabidopsis thaliana) (UniProt Q39057); test: pull-down; soluble protein fractions of E. coli BL21 lysates mixed; MBP-CO held on amylose-coated magnetic beads; GST fusions detected by immunoblotting
[3] = target: GST-miP1a (Arabidopsis thaliana) (UniProt Q9LRM4); test: pull-down; E. coli cell extracts of MBP-CO and HIS-TPL mixed with GST-miP1a, GST-miP1aΔPFVFL or GST-ZPR3; GST fusions held on anti-GST magnetic beads; HIS-TPL and MBP-CO detected by immunoblotting
[4] = target: GST-miP1aΔPFVFL (Arabidopsis thaliana) (UniProt Q9LRM4); test: as above
[5] = target: GFP-CO (Arabidopsis thaliana) (UniProt Q39057); test: FRET or BRET; FRET-FLIM: GFP lifetime in nuclei of transiently transformed Nicotiana benthamiana leaves; GFP-CO with RFP fusions or free RFP
[6] = target: CONSTANS fused to the Gal4 activation domain (AD-CO) (Arabidopsis thaliana) (UniProt Q39057); test: yeast three-hybrid; AD-CO and BD-TPL with miP1a expressed from pDRf1-GW; mated strains pJ69-4alpha and YM4271; growth without Trp, Leu, Ura, His with 10 mM 3-aminotriazole
[7] = target: T1, TOPLESS fused to the Gal4 DNA-binding domain (BD-TPL) (Arabidopsis thaliana); test: as above
[8] = target: microProtein 1a fused to the Gal4 DNA-binding domain (BD-miP1a) (Arabidopsis thaliana) (UniProt Q9LRM4); test: two-hybrid; Matchmaker Gold (Clontech), Y2H Gold strain; Gal4 AD fusions of CO or COBB as prey, Gal4 BD fusions of miP1a, miP1b, miP1a* as bait; growth on SD lacking His, Leu, Trp with 10 mM 3-aminotriazole
[9] = target: microProtein 1b fused to the Gal4 DNA-binding domain (BD-miP1b) (Arabidopsis thaliana) (UniProt Q1G3I2); test: as above

Molecule: GST-miP1a (from UniProt Q9LRM4)
binding [2]: binds

Molecule: MBP-CO (from UniProt Q39057 1-373)
binding [3]: binds
binding [4]: binds

Molecule: RFP-miP1b (from UniProt Q1G3I2)
binding [5]: binds

Molecule: miP1a*, two-hybrid fusion tested against TPL (Arabidopsis thaliana)
binding [1]: binds

Molecule: CONSTANS fused to the Gal4 activation domain (AD-CO) (from UniProt Q39057 1-373)
binding [8]: binds
binding [9]: binds

B1: HIS-TPL (protein, UniProt Q94AI7 1-1131)
chain: T1 sequence
binding [3]: binds
binding [4]: no binding

Results, then the molecule that gave them:

binding [1]: no binding
Molecule: miP1aΔPFVFL, two-hybrid fusion tested against TPL (from UniProt Q9LRM4) (domain or fragment)

binding [5]: binds
Molecule: RFP-miP1a (from UniProt Q9LRM4)

binding [6]: binds
binding [7]: binds
Molecule: miP1a expressed from pDRf1-GW in the yeast three-hybrid assay (from UniProt Q9LRM4)

binding [1]: binds
Molecule: miP1a, two-hybrid fusion tested against TPL (from UniProt Q9LRM4)
